# The list shows a part of the results. Shown are side measurements of this screen, not its main read-out; they come without a call. Compounds called inactive in the main read-out are mostly missing here. Potencies come from curve fits of mixed quality, noted in brackets.
# Assay: Cell signaling CRE-BLA (Fsk stim)
# Settings: CHO CRE-bla reporter (cAMP response element driving beta-lactamase), forskolin EC10, beta-lactamase ratio; measured here: 460 nm blue channel
# From the text: NIH Molecular Libraries Screening Centers Network [MLSCN]
# NIH Chemical Genomics Center [NCGC]
# Assay Provider: Marshall W. Nirenberg, U.S. National heart lung & blood institute
# Memories persist for different lengths of time, from seconds or minutes to a lifetime. There are two kinds of memory: short-term memory (STM) and long-term memory (LTM). STM lasts for minutes to hours, which maybe mediated by modifications of molecules involved in synaptic functions. LTM lasts for days or longer, and may be due to the formation of new synapses or restructuring of existing synapses. LTM, but not STM, requires gene transcription and synthesis of proteins. CREB (cyclic-AMP Responsive Element Binding Protein) is one of the candidates plays an important role for enhancement of some types of LTM. CREB, a family of transcription factors, regulates the transcription of genes containing cAMP Responsive Elements (CRE). CRE is a nucleotide sequence often found in the promoter regions of genes that are binding sites for CREB.
# Using a beta-lactamase reporter-gene under control of cAMP responsive element, a cell-based assay [CellSensor(TM) CRE-bla CHO developed by Invitrogen Corp.] was used to measure forskolin-induced signaling. Library compounds were measured for their ability to modulate positively or negatively the action of EC10 NKH 477, a water soluble forskolin, on reporter gene activity. Compounds were screened in a titration series in 1536-well format. Positive and negative modulators were identified based on the AC50 values derived from the screening data.
# NCGC Assay Protocol Summary
# 2000 cells/5uL in Opti-MEM medium containing 0.5% dialyzed FBS, 0.1 mM NEAA, 1 mM sodium pyruvate and 10 mM HEPES was dispensed into 1536-well plates and cells were cultured at 37 degrees Celsius overnight. […] And then the plates were incubated at 37 degrees Celsius for 3 hours. 1 uL of CCF4-dye mixture was added to each well. After incubated at room temperature for 2 hours the plates were measured on an EnVision plate reader at Excitation 405nm, Emission1=460nm and Emission 2=530nm. The %Activity was determined from the ratio of 460nm/530nm.
# Keywords: NIH Roadmap, MLSCN, MLSMR, qHTS, NCGC, CRE, beta-lactamase reporter-gene assay.
row,Structure (SMILES),AC50
1,COc1ccc(CCNS(=O)(=O)c2ccc3c(c2)CCN3C(=O)CCC(=O)O)cc1OC,"0.631 µM [falling, full curve, poor fit]"
2,Cc1c(C(=O)Nc2c(C)n(C)n(-c3ccccc3)c2=O)oc2ccccc12,"0.631 µM [falling, partial curve]"
3,Cc1cc(-c2ccccc2)c(C#N)c(SCC(N)=O)n1,"10 µM [rising, single point]"
4,CCCCCCn1c(CN2CCN(CCO)CC2)nc2c1c(=O)n(C)c(=O)n2C,"10 µM [rising, partial curve]"
5,C=CCNc1nc(-c2ccccc2)nc(-n2ccnc2)n1,"5.01 µM [rising, partial curve]"
6,CCC(=O)Nc1c(C#N)c2nc3ccccc3nc2n1-c1ccccc1C,"12.6 µM [rising, partial curve]"
7,Cc1ccc(-n2nc(-c3cccs3)cc2C(=O)NCC2CCCO2)c(C)c1 (stereo unspecified),"3.16 µM [falling, partial curve]"
8,Cn1c(=O)c(-c2cc(F)cc(F)c2)nc2cnc(N3CCNCC3)nc21,"5.01 µM [rising, partial curve]"
9,CCSc1nc2c(c(=O)[nH]c(=O)n2C)n1C/C=C(/C)Cl,"2 µM [rising, full curve]"
10,CCc1c(C)nc2ncnn2c1N1CCCC(C(=O)NCCc2ccccc2)C1 (stereo unspecified),"10 µM [rising, single point]"
11,Cc1ccc(C(=O)OCC(=O)Nc2sc3c(c2C#N)CCCCC3)cc1NC(=O)c1ccco1,"5.01 µM [falling, single point]"
12,Cc1cc(NC(=O)c2cc3nc(C4CC4)cc(C(F)(F)F)n3n2)no1,"12.6 µM [rising, single point]"
13,COc1ccc(CCN2C(=O)c3[nH]nc(-c4ccccc4O)c3C2c2ccc(C)cc2)cc1OC (stereo unspecified),"25.1 µM [falling, single point]"
14,CCOC(=O)c1c(C)oc2ccc(OC(=O)N3CCOCC3)cc12,"12.6 µM [rising, partial curve]"
15,O=C(C1CC1)n1cc(C(=S)N2CCOCC2)c2ccccc21,"12.6 µM [rising, partial curve]"
16,Cc1ccc(S(=O)(=O)n2nc(C)c(Br)c2C)c(C)c1C,"0.0631 µM [falling, full curve]"
17,Cc1ccccc1-c1ccc2ncnc(NCCN3CCOCC3)c2c1,"12.6 µM [rising, partial curve]"
18,CCC1CCCCN1Cc1nc2c(c(=O)n(C)c(=O)n2C)n1CCCc1ccccc1 (stereo unspecified),"25.1 µM [rising, single point]"
19,O=C(CCC1CCCC1)c1c(O)c2ccccc2oc1=O,"12.6 µM [falling, single point]"
20,CCOC(=O)c1[nH]c(CSc2nnnn2-c2ccccc2C)c(C(=O)OCC)c1C,"25.1 µM [rising, single point]"
21,CC1(c2ccccc2)CC(c2ccccc2)=Nc2nonc2N1 (stereo unspecified),"3.98 µM [falling, full curve]"
22,CC(=O)c1cccc(NC(=O)c2cc3nc(C)cc(C)n3n2)c1,"10 µM [rising, partial curve]"

row,Structure (SMILES),AC50
1,COc1ccccc1N1CCN(CC(=O)c2c(C)[nH]c3cc(C)ccc23)CC1,"5.01 µM [falling, partial curve, poor fit]"
2,COc1c(Br)cc2c(C)c(C(=O)N3CCOCC3)oc2c1Br,"12.6 µM [rising, partial curve]"
3,CCOc1ccc2[nH]c(=O)c(CN(Cc3cccnc3)C(=O)Nc3ccccc3OC)cc2c1,"12.6 µM [rising, single point]"
4,CN1CCN(c2ncc3nc(-c4cc(F)cc(F)c4)c(=O)n(CCC#N)c3n2)CC1,"6.31 µM [rising, partial curve]"
5,NS(=O)(=O)c1cccc2c1c([N+](=O)[O-])cc1[nH]c(=O)c(=O)[nH]c12,"31.6 µM [falling, single point]"
6,COc1ccc2cc3cc(C(=O)NCCN4CCc5ccccc5C4)oc3nc2c1,"0.794 µM [rising, full curve]"
7,Cc1noc(C)c1C(=O)NCc1ccco1,"7.94 µM [falling, partial curve]"
8,Cc1ccc(-c2noc(CCC(=O)Nc3cccc(C#N)c3)n2)cc1,"0.00398 µM [falling, full curve, poor fit]"
9,CC1CCCCN1C(=O)c1cnn2c(C(F)(F)F)cc(-c3ccco3)nc12 (stereo unspecified),"12.6 µM [rising, single point]"
10,CCC(Oc1ccccc1)C(=O)Nc1ccc(-c2nnc(-c3ccco3)o2)cc1 (stereo unspecified),"12.6 µM [rising, single point]"
11,COC(=O)C1=C(C)NC(C)=C(C(=O)OC)C1C(=O)OCCN1C(=O)c2ccccc2C1=O,"5.01 µM [falling, single point]"
12,CCNc1ncc2nc(-c3cc(F)cc(F)c3)c(=O)n(C3CC3)c2n1,"3.16 µM [rising, full curve]"
13,COC(=O)[C@@]1(Cc2ccccc2)[C@H]2c3cc(C(=O)N4CCCC4)n(Cc4ccc(O)c(OC)c4)c3C[C@H]2CN1C(=O)c1ccccc1,"12.6 µM [rising, partial curve]"
14,N#Cc1c(SCC(N)=O)nc2c(c1-c1ccc(O)cc1)CCCC2,"10 µM [rising, partial curve]"
15,COc1cc(C(=O)NCCC(=O)NC2CCCCCCC2)cc(OC)c1OC,"2 µM [falling, single point]"
16,COc1ccc(C2=NOC(C(=O)Nc3cc(C)nn3-c3ccccc3)C2)cc1OC (stereo unspecified),"2.51 µM [rising, full curve]"
17,CCOc1nc(C)ccc1-c1noc(-c2ccco2)n1,"6.31 µM [rising, partial curve]"
18,Cc1cccc(Cn2c(SCC(=O)Nc3ccccc3)nc3c2c(=O)[nH]c(=O)n3C)c1,"10 µM [rising, partial curve]"
19,Cc1c(NC(=O)COC(=O)c2cc3c4ccccc4n(C)c3s2)c(=O)n(-c2ccccc2)n1C,"1 µM [rising, partial curve]"
20,Cc1ccc(C(=O)C2=C(O)C(=O)N(CCCN(C)C)C23C(=O)N(C)c2ccccc23)o1 (stereo unspecified),"1 µM [falling, partial curve]"
21,Nc1nc(SCc2ccccc2)[nH]c(=O)c1-c1ccccc1,"0.00398 µM [falling, full curve, poor fit]"
22,CCc1c(C)c(C#N)c2nc3ccccc3n2c1Nc1c(C)n(C)n(-c2ccccc2)c1=O,"25.1 µM [rising, single point]"

row,Structure (SMILES),AC50
1,CCOc1ccccc1NC(=O)c1ccccc1-c1nc(-c2ccccc2OC)no1,"0.02 µM [falling, full curve, poor fit]"
2,CN(CC[C@@H](Oc1ccc(-c2ccccc2)cc1)c1ccc(F)cc1)CC(=O)O,"3.98 µM [falling, partial curve, poor fit]"
3,COCCNC(=O)CSc1nc2nc(C)cc(C)n2n1,"0.01 µM [rising, full curve]"
4,CN(Cc1ccco1)c1ncnc2ccc(-c3ccoc3)cc12,"0.316 µM [falling, full curve]"
5,Cc1noc(C)c1CSc1nnc(-c2cc(Cl)ccc2Cl)n1N,"10 µM [rising, partial curve]"
6,Cc1noc(C)c1-c1ccc2ncnc(N3CCN(C)CC3)c2c1,"6.31 µM [rising, partial curve]"
7,CN(C)c1ccc(C2=NOC(CN3C(=O)c4ccccc4S3(=O)=O)C2)cc1 (stereo unspecified),"10 µM [falling, partial curve]"
8,Cn1cc(-c2nc3cnc(N4CCNCC4)nc3n(CCC#N)c2=O)c2ccccc21,"10 µM [rising, partial curve]"
9,CCOC(=O)CSc1ccc2nnc(-c3cccnc3)n2n1,"12.6 µM [rising, partial curve]"
10,CCOc1ccccc1-n1c(SCC(=O)NC(C)CC)nnc1-c1ccoc1C (stereo unspecified),"0.00398 µM [falling, full curve, poor fit]"
11,Clc1cccc(Nc2c3c(nc4ncnn24)CCC3)c1,"12.6 µM [rising, partial curve]"
12,COc1ccc(CCn2c(=N)c(C(=O)NCc3ccco3)cc3c(=O)n4cccc(C)c4nc32)cc1,"10 µM [rising, single point]"
13,Cn1c2ccccc2c2nnc(SCN3C(=O)c4ccccc4C3=O)nc21,"3.16 µM [rising, single point]"
14,COC(=O)CC1=C(C)C(=O)CC2C(C)(C)CCCC12C (stereo unspecified),"3.98 µM [falling, partial curve]"
15,CCCCOC(=O)C(C#N)c1nc2ccccc2nc1N1CCN(Cc2ccc3c(c2)OCO3)CC1 (stereo unspecified),"25.1 µM [rising, single point]"
16,COc1ccc2c(c1)S/C(=C\C(=O)c1ccncc1)N2C,"12.6 µM [rising, single point]"
17,Cc1ccc(S(=O)(=O)c2nc(C(C)(C)C)oc2N2CCOCC2)cc1,"12.6 µM [rising, single point]"
18,Cc1cc(C(=O)CSc2nn(-c3ccccc3)c(=S)s2)c(C)n1Cc1ccco1,"1 µM [falling, full curve, poor fit]"
19,COc1ccc(-c2csc(N3CCOCC3)n2)cc1OC,"10 µM [rising, partial curve]"
20,COc1ccccc1NC(=O)Nc1ccc(Br)cn1,"3.16 µM [falling, full curve]"
21,Cc1ccc(C(=O)CSc2nnc(CNc3nc(-c4ccccc4)cs3)n2C)cc1,"5.01 µM [falling, single point]"
22,COc1ccc2[nH]cc(CCNc3ncncc3-c3cccnc3)c2c1,"12.6 µM [rising, single point]"

# A run of entries taken from the entries so far:
row,Structure (SMILES),AC50
10,CCOc1ccccc1-n1c(SCC(=O)NC(C)CC)nnc1-c1ccoc1C (stereo unspecified),"0.00398 µM [falling, full curve, poor fit]"
11,Clc1cccc(Nc2c3c(nc4ncnn24)CCC3)c1,"12.6 µM [rising, partial curve]"
12,COc1ccc(CCn2c(=N)c(C(=O)NCc3ccco3)cc3c(=O)n4cccc(C)c4nc32)cc1,"10 µM [rising, single point]"

# From PubChem BioAssay AID662 (National Center for Advancing Translational Sciences (NCATS), 2007)
